US20220275080A1
These are yes or no findings as the source states them, for the method shown. Some binding calls cover weakened binding; strength is not graded here.

T1: Lrig-1 protein expressed on the surface of L cells (leucine-rich and immunoglobulin-like domains 1) (human) (UniProt Q96JA1)
T1 sequence: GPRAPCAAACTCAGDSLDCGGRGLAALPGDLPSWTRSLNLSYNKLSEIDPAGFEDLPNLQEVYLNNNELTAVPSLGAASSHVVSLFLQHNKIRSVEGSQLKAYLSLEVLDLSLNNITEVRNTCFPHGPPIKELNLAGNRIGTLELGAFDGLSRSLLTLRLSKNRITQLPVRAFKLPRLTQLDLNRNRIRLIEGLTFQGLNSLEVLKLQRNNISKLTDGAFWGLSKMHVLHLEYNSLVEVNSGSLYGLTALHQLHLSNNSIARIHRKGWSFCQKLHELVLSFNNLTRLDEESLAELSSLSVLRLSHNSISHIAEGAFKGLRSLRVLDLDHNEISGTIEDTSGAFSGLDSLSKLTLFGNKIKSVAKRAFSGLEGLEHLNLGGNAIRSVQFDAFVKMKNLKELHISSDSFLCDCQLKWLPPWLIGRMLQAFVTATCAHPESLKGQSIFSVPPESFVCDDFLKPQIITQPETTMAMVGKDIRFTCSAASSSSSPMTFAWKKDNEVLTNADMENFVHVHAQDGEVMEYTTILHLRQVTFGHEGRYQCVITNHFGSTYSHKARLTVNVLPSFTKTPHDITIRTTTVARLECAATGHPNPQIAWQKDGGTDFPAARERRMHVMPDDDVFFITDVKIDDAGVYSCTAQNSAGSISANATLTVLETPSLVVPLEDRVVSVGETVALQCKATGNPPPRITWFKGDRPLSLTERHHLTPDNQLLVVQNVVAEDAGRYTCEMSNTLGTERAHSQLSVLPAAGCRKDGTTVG


Target: T1, Lrig-1 protein expressed on the surface of L cells (leucine-rich and immunoglobulin-like domains 1) (human)
Experiment: FACS on L cells stably expressing Lrig-1, eFluor 670 anti-mouse secondary antibody

Binder | binding
A7 clone, Lrig-1 protein-specific monoclonal antibody (Production Example 1) (antibody, mouse IgG2a, V domains shown) VH: EVQLLESGGGLVQPGGSLRLSCAASGFTFSGYDMSWVRQAPGKGLEWVSLIYPDSGNKYYADSVKGRFTISRDNSKNTLYLQMNSLRAEDTAVYYCARDAGLSWAGAFDYWGQGTLVTVSS VL: QSVLTQPPSASGTPGQRVTISCSGSSSNIGSNYVTWYQQLPGTAPKLLIYSDSHRPSGVPDRFSGSKSGTSASLAISGLQSEDEADYYCGSWDYSLSAYVFGGGTKLTVLR | binds
G3 clone, Lrig-1 protein-specific monoclonal antibody (Production Example 4) (antibody, mouse IgG2a, V domains shown) VH: EVQLLESGGGLVQPGGSLRLSCAASGFTFSNYDMSWVRQAPGKGLEWVSSISPSSGSIYYADSVKGRFTISRDNSKNTLYLQMNSLRAEDTAVYYCAKDLDAFWRPSFDYWGQGTLVTVSS VL: QSVLTQPPSASGTPGQRVTISCTGSSSNIGNNNVNWYQQLPGTAPKLLIYSDSHRPSGVPDRFSGSKSGTSASLAISGLRSEDEADYYCGSWDDSLSAYVFGGGTKLTVLR | binds

Second part, the binder after the results:

binding | Binder
binds | E7 clone, Lrig-1 protein-specific monoclonal antibody (Production Example 3) (antibody, mouse IgG2a, V domains shown) VH: EVQLLESGGGLVQPGGSLRLSCAASGFTFSSYDMSWVRQAPGKGLEWVSGISPDGSNIYYADSVKGRFTISRDNSKNTLYLQMNSLRAEDTAVYYCAKVGLRCRYEACSYAYGMDVWGQGTLVTVSS VL: QSVLTQPPSASGTPGQRVTISCSGSSSNIGSNYVSWYQQLPGTAPKLLIYSDSHRPSGVPDRFSGSKSGTSASLAISGLRSEDEADYYCATWDSSLNGYVFGGGTKLTVLR
binds | C8 clone, Lrig-1 protein-specific monoclonal antibody (Production Example 2) (antibody, mouse IgG2a, V domains shown) VH: EVQLLESGGGLVQPGGSLRLSCAASGFTFSNYYMSWVRQAPGKGLEWVSGISPGDSSTYYADSVKGRFTISRDNSKNTLYLQMNSLRAEDTAVYYCAKGLYSNPNEPFDYWGQGTLVTVSS VL: QSVLTQPPSASGTPGQRVTISCTGSSSNIGSNYVSWYQQLPGTAPKLLIYDDSQRPSGVPDRFSGSKSGTSASLAISGLRSEDEADYYCGTWDYSLNGYVFGGGTKLTVLR
